The source of these data is paper PMC11224403, “Des-acyl ghrelin reduces alcohol intake and alcohol-induced reward in rodents” (Translational Psychiatry, 2024).

By UniProt entry, the sequences of proteins in these tests, tags left out. Where a name states a change or a piece, a line headed by the entry shows the natural chain unless it says otherwise.
UniProt Q9UBU3: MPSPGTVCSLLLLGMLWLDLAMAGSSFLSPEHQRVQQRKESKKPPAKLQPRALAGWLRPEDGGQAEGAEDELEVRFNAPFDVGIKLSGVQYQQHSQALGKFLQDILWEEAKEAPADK

The nature of the series: Serum DAG by ELISA and correlation with alcohol intake. The following applies: n = 12 low, endogenous level, ELISA. Also noted: species or system rats.

Regarding “des-acyl ghrelin (GSSFLSPEHQRVQQRKESKKPPAKLQPR; Ghrelin-28 non-acylated; UniProt Q9UBU3 24-51, looked up) [DAG, non-octanoylated form of ghrelin; purchased from Tocris (printed Tocrise Bioscience), dissolved in 0.9% NaCl]”, the “serum DAG, high vs low alcohol-consuming” value (female rats, n = 11 high) is recorded as “tended to display higher amounts of serum DAG (t21 = 1.64; P = 0.0585)”. Besides, the “serum DAG, low vs high alcohol-consuming” value (male rats, n = 12 high) is “no difference in serum des-acyl-ghrelin (DAG) between male rats consuming low (n = 12) or high (n = 12) amounts of alcohol (t22 = 0.11; P = 0.9137)”.
